Measurements as given in patent EP0263213B1, “C20 Through C26 amino steroids” (THE UPJOHN COMPANY, priority 1986, dated 1988).
Some results were stated once for a whole list of compounds, not compound by compound. For part of these data: At least one structure is not confirmed: it was looked up by name or label, or the drawing left a doubt.

What was measured:
[1] = tested on: arachidonic acid; assay: Arachidonic Acid Antagonism Assay (AAAA); format: in vivo; conditions: active = elevates the LD50 of sodium arachidonate outside the 95% confidence interval of the control LD50; test compound IV 15 minutes before; male CF-1 mice
Method: Since these metabolites contribute to the pathological problems associated with stroke, spinal trauma and head injury, compounds which antagonize arachidonic acid are useful in treating stroke, spinal trauma and head injury.
While not necessary to determine arachidonic acid antagonism, the above assay has been modified as follows: Charles River male CF-1 mice weighing 18-22g are treated IV with the test compound dissolved in 1.0% Tween-80 and 0.1% hydrochloric acid in distilled water, 0.2 ml total volume. Fifteen minutes later sodium arachidonate (90% pure) in physiological (normal) saline is injected into the tail vein. The LD₅₀ is measured using the Spearman-Karber method with a log dose interval of 0.05 (N=6). Compounds which elevate the LD₅₀ outside of the 95% confidence interval of the control LD₅₀ are considered to be "active".

[2] = tested on: rat brain synaptosomes; assay: Conjugated Diene Formation Assay; format: biochemical; conditions: active = inhibits conjugated diene formation by 50% or more; 100 »M (or less) of drug, 100 »M hydrogen peroxide, 200 »M ferrous ammonium sulfate
Text: The formation of conjugated dienes as assayed by Braughler, J. Neurochem., 44, 1282 (1985), Bucher, Fund. Applied Tox., 3, 222 (1983) and Tein, Arch. Biochem. Biophy., 216, 142 (1982) is a standard pharmacological laboratory procedure useful for identifying compounds which inhibit lipid peroxidation. Since lipid peroxidation is involved in the pathophysiology of central nervous system trauma, compounds which inhibit conjugated diene formation are useful in treating the conditions listed below.
44, 1282 (1985). Synaptosomal suspension (10 »l) is added to 1 ml of physiological (normal) saline containing 1 % Lubrol PX (Sigma Chemical Co. St. Louis, Mo.), 100 »M hydrogen peroxide and 100 »M (or less) of the drug to be tested prepared in either absolute ethanol or water depending upon solubility. The reaction is started by the rapid addition of 200 »M ferrous ammonium sulfate is prepared in argon-purged water. The sample is rapidly mixed and the change in absorbance at 232nm is followied in a Gilford Response Spectrophotometer equipped with a rapid sampler. Due to the rapidity of the reaction, rapid addition of the iron, rapid mixing and sampling are obligatory to the accuracy of the assay. For best results absorbance readings of one/sec should be started within 5 sec following the addition of iron. The initial linear rate of absorbance change during the first 30 sec of reaction are compared with the rate of a reaction containing all reagents except synaptosomes. The difference in rates is the rate of conjugated diene formation. Rates with drug are compared to rates obtained in the absence of drug and the % inhibition is calculated. A compound that inhibits conjugated diene formation by 50% or more is considered to be "active".

[3] = tested on: chick embryo; assay: fertile egg or chick embryo assay of Folkman (angiogenesis); format: in vivo; conditions: active = avascular zone of 4 mm or greater in some embryos at 50 »g/10 »l in the presence of 50 »g/10 » of heparin
Text: According to this procedure compounds which are considered to be "active" (i.e. antiangiogenic) give an avascular zone of 4 mm or greater in some embryos when tested at 50 »g/10 »l in the presence of 50 »g/10 » of heparin.

Compound	arachidonic acid antagonism [1]	inhibition of conjugated diene formation [2]	inhibition of angiogenesis [3]
CCN(CC)c1nc(N2CCCCC2)cc(N2CCN(CC(=O)[C@@]3(O)CC[C@H]4[C@@H]5CCC6=CC(=O)CC[C@]6(C)C5=CC[C@@]43C)CC2)n1.Cl.O [Example 17]	demonstrate arachidonic acid antagonism	–	–
C[C@]12CCC(=O)C=C1CC[C@@H]1C2=CC[C@@]2(C)[C@H]1CC[C@]2(O)C(=O)CN1CCN(c2cc(N3CCOCC3)nc(N3CCOCC3)n2)CC1.Cl.Cl.O [Example 105, 21-[4-(2,6-Bis(4-morpholinyl)-4-pyrimidinyl)-1-piperazinyl]-17α-hydroxypregna-4,9(11)-diene-3,20-dione dihydrochloride, hydrate]	–	demonstrate such activity by inhibition of conjugated dienes	–
C[C@]12C[C@H](O)[C@H]3[C@@H](CCC4=CC(=O)CC[C@@]43C)[C@@H]1CC[C@@H]2CCN1CCN(c2ccccn2)CC1.Cl.Cl [Example 106, 11β-Hydroxy-21-[4-(2-pyridinyl)-1-piperazinyl]pregn-4-en-3-one dihydrochloride]	–	demonstrate such activity by inhibition of conjugated dienes	–
COc1ccccc1N1CCN(CC(=O)[C@@]2(O)CC[C@H]3[C@@H]4CCC5=CC(=O)CC[C@]5(C)C4=CC[C@@]32C)CC1 [Example 11, 17α-Hydroxy-21-[4-(2-methoxyphenyl)-1-piperazinyl]pregna-4,9(11)-diene-3,20-dione]	demonstrate arachidonic acid antagonism	demonstrate such activity by inhibition of conjugated dienes	–
11α,17α-Dihydroxy-21-[4-(2-pyridinyl)-1-piperazinyl]pregn-4-ene-3,20-dione 11-(3,3-dimethyl-1-butyrate dihydrochloride [Example 28]	–	demonstrate such activity by inhibition of conjugated dienes	–
C[C@]12CCC(=O)C=C1CC[C@@H]1C2=CC[C@@]2(C)[C@H]1CC[C@]2(O)C(=O)CN1CCN(C(=O)Nc2cccc(Cl)c2)CC1 [Example 10, 17α-Hydroxy-21-[4-[[(3-chlorophenyl)amino]carbonyl]-1-piperazinyl]pregna-4,9(11)-diene-3,20-dione]	–	demonstrate such activity by inhibition of conjugated dienes	–
CS(=O)(=O)O.Cc1cnc(C)c(N2CCN(CC(=O)[C@@]3(O)CC[C@H]4[C@@H]5CCC6=CC(=O)CC[C@]6(C)C5=CC[C@@]43C)CC2)n1.O [Example 13, 17α-Hydroxy-21-[4-(3,6-dimethylpyrazinyl)-1-piperazinyl]pregna-4,9(11)-diene-3,20-dione monomethanesulfonate hydrate]	demonstrate arachidonic acid antagonism	demonstrate such activity by inhibition of conjugated dienes	demonstrate inhibition of angiogenesis
CN(C)c1cc(N2CCN(CC(=O)[C@@]3(O)CC[C@H]4[C@@H]5CCC6=CC(=O)CC[C@]6(C)C5=CC[C@@]43C)CC2)nc(N(C)C)n1.Cl.Cl.O [Example 16, 17α-Hydroxy-21-[4-[2,6-bis(dimethylamino)-4-pyrimidinyl]-1-piperazinyl]pregna-4,9(11)-diene-3,20-dione dihydrochloride hydrate]	demonstrate arachidonic acid antagonism	demonstrate such activity by inhibition of conjugated dienes	–
CCN(CC)c1cc(N2CCN(CC(=O)[C@@]3(O)[C@H](C)C[C@H]4[C@@H]5CCC6=CC(=O)C=C[C@]6(C)C5=CC[C@@]43C)CC2)nc(N(CC)CC)n1.Cl.O [Example 18, 21-[4-[2,6-Bis(diethylamino)-4-pyrimidinyl]-1-piperazinyl]-17α-hydroxy-16α-methylpregna-1,4,9(11)-triene-3,20-dione hydrochloride hydrate]	–	demonstrate such activity by inhibition of conjugated dienes	–
COc1cccc(N2CCN(CC(=O)[C@@]3(O)CC[C@H]4[C@@H]5CCC6=CC(=O)CC[C@]6(C)C5=CC[C@@]43C)CC2)n1.CS(=O)(=O)O [Example 22, 17α-hydroxy-21-[4-(6-methoxy-2-pyridinyl)-1-piperazinyl]pregna-4,9(11)-diene-3,20-dione monomethanesulfonate]	–	demonstrate such activity by inhibition of conjugated dienes	–
CCN(CC)c1nc(N2CCCC2)cc(N2CCN(CC(=O)[C@@]3(O)CC[C@H]4[C@@H]5CCC6=CC(=O)CC[C@]6(C)C5=CC[C@@]43C)CC2)n1.Cl.Cl.O [Example 14]	demonstrate arachidonic acid antagonism	–	–
C[C@]12CCC(=O)C=C1CC[C@@H]1[C@@H]2CC[C@@]2(C)[C@H]1CC[C@]2(O)C(=O)NCc1ccccn1 [Example 103, 17α-Hydroxy-17β-[[[(2-Pyridinyl)methyl]amino]carbonyl]-androst-4-en-3-one]	–	demonstrate such activity by inhibition of conjugated dienes	–
CS(=O)(=O)O.C[C@]12CCC(=O)C=C1CC[C@@H]1C2=CC[C@@]2(C)[C@H]1CC[C@]2(O)C(=O)CN1CCN(c2ccccn2)CC1 [Example 2, 17α-Hydroxy-21-[4-(2-pyridinyl)-1-piperazinyl]pregna-4,9(11)-diene-3,20-dione methanesulfonate]	–	–	demonstrate inhibition of angiogenesis
CN1CCN(c2cc(N3CCN(CC(=O)[C@@]4(O)CC[C@H]5[C@@H]6CCC7=CC(=O)CC[C@]7(C)C6=CC[C@@]54C)CC3)nc(N3CCN(C)CC3)n2)CC1.CS(=O)(=O)O.O [Example 19, 17α-Hydroxy-21-[4-[2,6-bis(4-methyl-1-piperazinyl)-4-pyrimidinyl]-1-piperazinyl]pregna-4,9(11)diene-3,20-dione methanesulfonate hydrate]	–	demonstrate such activity by inhibition of conjugated dienes	–
CN(C)c1cc(N2CCN(CC(=O)[C@@]3(O)CC[C@H]4[C@@H]5CCC6=CC(=O)CC[C@]6(C)C5=CC[C@@]43C)CC2)nc(N(C)C)n1.Cl [Example 12, 17α-Hydroxy-21-[4-[2,6-bis(dimethylamino)-4-pyrimidinyl]-1-piperazinyl]pregna-4,9(11)-diene-3,20-dione hydrochloride salt]	demonstrate arachidonic acid antagonism	demonstrate such activity by inhibition of conjugated dienes	–
CCN(CC)c1nc(N2CCN(C)CC2)cc(N2CCN(CC(=O)[C@@]3(O)CC[C@H]4[C@@H]5CCC6=CC(=O)CC[C@]6(C)C5=CC[C@@]43C)CC2)n1.Cl.O [Example 15, 17α-Hydroxy-21-[4-[2-(diethylamino)-6-(4-methyl-1-piperazinyl)-4-pyrimidinyl]-1-piperazinyl]pregna-4,9(11)-diene-3,20-dione hydrochloride hydrate]	demonstrate arachidonic acid antagonism	demonstrate such activity by inhibition of conjugated dienes	–
COc1ccc(N2CCN(CC(=O)[C@@]3(O)CC[C@H]4[C@@H]5CCC6=CC(=O)CC[C@]6(C)[C@H]5[C@H](OC(=O)CC(C)(C)C)C[C@@]43C)CC2)cc1.Cl.Cl [Example 32, 11α,17α-dihydroxy-21-[4-(4-methoxyphenyl)-1-piperazinyl]pregn-4-ene-3,20-dione 11-(3,3-dimethyl-1-butyrate) dihydrochloride]	–	demonstrate such activity by inhibition of conjugated dienes	–
C[C@]12CCC(=O)C=C1CC[C@@H]1C2=CC[C@]2(C)[C@@H](CCN3CCN(c4cc(N5CCCC5)nc(N5CCCC5)n4)CC3)CC[C@@H]12.Cl [Example 104, 21-[4-(2,6-Bis(1-pyrrolidinyl)-4-pyrimidinyl)-1-piperazinyl]pregna-4,9(11)-dien-3-one hydrochloride]	–	demonstrate such activity by inhibition of conjugated dienes	–
